Measured values taken from article PMC10581371.
Results are given in words; binding and its absence hold for the method and conditions named. Binding seen in cells or lysates may run through a third protein. Some results given as binding are weak or reduced against the parent protein; the word gives no strength.

Chains of the proteins cited; added tags and fusions are not shown.
UniProt P22314: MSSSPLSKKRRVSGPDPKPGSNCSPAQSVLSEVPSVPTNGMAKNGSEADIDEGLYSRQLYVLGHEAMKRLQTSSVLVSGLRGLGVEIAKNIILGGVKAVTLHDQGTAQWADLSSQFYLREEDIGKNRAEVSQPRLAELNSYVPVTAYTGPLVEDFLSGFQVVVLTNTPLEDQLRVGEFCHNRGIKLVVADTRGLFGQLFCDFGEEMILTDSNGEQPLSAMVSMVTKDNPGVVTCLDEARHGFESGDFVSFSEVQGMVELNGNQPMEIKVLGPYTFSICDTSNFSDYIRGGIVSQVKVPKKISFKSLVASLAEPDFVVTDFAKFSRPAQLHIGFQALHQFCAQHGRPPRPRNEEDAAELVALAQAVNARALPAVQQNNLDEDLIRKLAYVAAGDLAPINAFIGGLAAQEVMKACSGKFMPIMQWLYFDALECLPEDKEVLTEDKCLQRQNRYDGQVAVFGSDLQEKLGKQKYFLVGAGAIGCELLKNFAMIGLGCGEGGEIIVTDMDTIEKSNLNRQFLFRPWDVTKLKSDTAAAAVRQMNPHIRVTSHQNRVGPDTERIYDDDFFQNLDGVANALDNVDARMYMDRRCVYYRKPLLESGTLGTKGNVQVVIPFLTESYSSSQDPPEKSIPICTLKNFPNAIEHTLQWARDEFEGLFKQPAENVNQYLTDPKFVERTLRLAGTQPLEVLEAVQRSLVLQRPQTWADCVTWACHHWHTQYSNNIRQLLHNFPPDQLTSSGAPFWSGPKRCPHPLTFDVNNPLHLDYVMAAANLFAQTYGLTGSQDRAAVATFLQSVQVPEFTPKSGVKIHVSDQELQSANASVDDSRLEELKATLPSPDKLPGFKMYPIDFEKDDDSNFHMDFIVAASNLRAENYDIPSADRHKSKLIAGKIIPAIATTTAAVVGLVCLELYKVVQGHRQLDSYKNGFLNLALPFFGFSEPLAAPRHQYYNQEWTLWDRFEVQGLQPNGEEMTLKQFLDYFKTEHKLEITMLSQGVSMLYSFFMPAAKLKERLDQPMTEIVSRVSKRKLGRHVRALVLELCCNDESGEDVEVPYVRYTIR

Biological target: UBA1 (UniProt P22314)
Experiment: co-IP; PC3 cells transfected with RBM15 and UBA1 plasmids; lysate incubated overnight at 4 °C with antibody on Dynabeads Protein G, washed 3 times with lysis buffer, bound proteins and 10% inputs detected by Western blots

binding: binds
B1: RBM15 (protein, UniProt Q96T37 1-977)
chain: MRTAGRDPVPRRSPRWRRAVPLCETSAGRRVTQLRGDDLRRPATMKGKERSPVKAKRSRGGEDSTSRGERSKKLGGSGGSNGSSSGKTDSGGGSRRSLHLDKSSSRGGSREYDTGGGSSSSRLHSYSSPSTKNSSGGGESRSSSRGGGGESRSSGAASSAPGGGDGAEYKTLKISELGSQLSDEAVEDGLFHEFKRFGDVSVKISHLSGSGSGDERVAFVNFRRPEDARAAKHARGRLVLYDRPLKIEAVYVSRRRSRSPLDKDTYPPSASVVGASVGGHRHPPGGGGGQRSLSPGGAALGYRDYRLQQLALGRLPPPPPPPLPRDLERERDYPFYERVRPAYSLEPRVGAGAGAAPFREVDEISPEDDQRANRTLFLGNLDITVTESDLRRAFDRFGVITEVDIKRPSRGQTSTYGFLKFENLDMSHRAKLAMSGKIIIRNPIKIGYGKATPTTRLWVGGLGPWVPLAALAREFDRFGTIRTIDYRKGDSWAYIQYESLDAAHAAWTHMRGFPLGGPDRRLRVDFADTEHRYQQQYLQPLPLTHYELVTDAFGHRAPDPLRGARDRTPPLLYRDRDRDLYPDSDWVPPPPPVRERSTRTAATSVPAYEPLDSLDRRRDGWSLDRDRGDRDLPSSRDQPRKRRLPEESGGRHLDRSPESDRPRKRHCAPSPDRSPELSSSRDRYNSDNDRSSRLLLERPSPIRDRRGSLEKSQGDKRDRKNSASAERDRKHRTTAPTEGKSPLKKEDRSDGSAPSTSTASSKLKSPSQKQDGGTAPVASASPKLCLAWQGMLLLKNSNFPSNMHLLQGDLQVASSLLVEGSTGGKVAQLKITQRLRLDQPKLDEVTRRIKVAGPNGYAILLAVPGSSDSRSSSSSAASDTATSTQRPLRNLVSYLKQKQAAGVISLPVGGNKDKENTGVLHAFPPCEFSQQFLDSPAKALAKSEEDYLVMIIVRGFGFQIGVRYENKKRENLALTLL
